Assay results published in article PMC7736804.
These are yes or no findings as the source states them, for the method shown. Binding seen in cells or lysates may run through a third protein.

Protein sequences, listed by entry. Tags and fused reporters are not part of them.
UniProt P06748: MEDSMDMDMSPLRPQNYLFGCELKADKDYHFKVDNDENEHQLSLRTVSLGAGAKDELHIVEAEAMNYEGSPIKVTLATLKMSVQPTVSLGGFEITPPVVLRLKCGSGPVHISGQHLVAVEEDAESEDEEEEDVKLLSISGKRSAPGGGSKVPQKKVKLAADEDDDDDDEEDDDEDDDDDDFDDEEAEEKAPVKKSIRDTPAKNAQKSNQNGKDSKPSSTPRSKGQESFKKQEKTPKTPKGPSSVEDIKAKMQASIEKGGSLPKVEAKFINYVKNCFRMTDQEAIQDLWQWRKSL

Assays:
Assay in all cases: co-IP; Flag-tagged BCCIP proteins, truncations or AD mutants transiently expressed in HEK293 cells; lysates precipitated with M2 anti-Flag beads; co-precipitated endogenous proteins detected by western blots
[1] = molecular target: Flag-tagged human BCCIPα (human) (UniProt Q9P287)
[2] = molecular target: Flag-tagged human BCCIPβ (human) (UniProt Q9P287)
[3] = molecular target: Flag-tagged mouse BCCIP (mouse) (UniProt Q9CWI3)

Measured: binding

B23 (endogenous, HEK293) (from UniProt P06748 1-294)
no binding: all assays above
